PMC7909569, “Unique Cellular and Biochemical Features of Human Mitochondrial Peroxiredoxin 3 Establish the Molecular Basis for Its Specific Reaction with Thiostrepton” (Antioxidants, 2021)
No constants are given. Whether binding was seen depends on the method and setting. For some of these results: In cells and extracts the contact can be indirect. Some results given as binding are weak or reduced against the parent protein; the word gives no strength. Each block holds one binder with its values, some of them ahead of it.

Columns and labels:
[1] = molecular target: PRX3 (endogenous, MM tumor cells) (human (endogenous in MM cells, HM cell line)) (UniProt P30048); assay: non-reducing SDS-PAGE with immunoblot (disulfide-bonded dimer); MM cells with or without 1 µM GV for 24 h (also with FCCP), blocked with 100 mM MMTS, RIPA lysates on non-reducing SDS-PAGE
[2] = molecular target: PRX3 (endogenous, MM tumor cells) (human (endogenous in MM cells, HM cell line)) (UniProt P30048); assay: cross-linking; MM cells (HM cell line) treated with 2.5 or 5 µM TS for 24 h (also with GV or FCCP); lysates on reducing SDS-PAGE, immunoblot; non-reducible dimer at ~45 kDa
[3] = molecular target: PRX1 (endogenous, MM tumor cells) (human (endogenous in MM cells, HM cell line)) (UniProt Q06830); assay: non-reducing SDS-PAGE with immunoblot (disulfide-bonded dimer); MM cells with or without 1 µM GV for 24 h (also with FCCP), blocked with 100 mM MMTS, RIPA lysates on non-reducing SDS-PAGE
[4] = molecular target: PRX4 (endogenous, MM tumor cells) (human (endogenous in MM cells, HM cell line)) (UniProt Q13162); assay: as above

binding [1]: binds
binding [2]: binds
B1: Untagged wild-type PRX3 (residues 62–256) (enzyme, human, UniProt P30048 62-256, looked up)
chain: APAVTQHAPYFKGTAVVNGEFKDLSLDDFKGKYLVLFFYPLDFTFVCPTEIVAFSDKANEFHDVNCEVVAVSVDSHFSHLAWINTPRKNGGLGHMNIALLSDLTKQISRDYGVLLEGSGLALRGLFIIDPNGVIKHLSVNDLPVGRSVEETLRLVKAFQYVETHGEVCPANWTPDSPTIKPSPAASKEYFQKVNQ
notes: peroxiredoxin 3 (PRX3), human, mitochondrial, residues 62–256, wild type, untagged; Stored oxidised to the disulfide (1.5 equivalents H2O2); tested reduced, partially oxidised and oxidised; also called peroxiredoxin 3; mitochondrial peroxiredoxin 3; not shown: Intein, N-terminal, cleaved

binding [3]: binds
B2: Wild-type human PRX1 (enzyme, UniProt Q06830 1-199, looked up)
chain: MSSGNAKIGHPAPNFKATAVMPDGQFKDISLSDYKGKYVVFFFYPLDFTFVCPTEIIAFSDRAEEFKKLNCQVIGASVDSHFCHLAWVNTPKKQGGLGPMNIPLVSDPKRTIAQDYGVLKADEGISFRGLFIIDDKGILRQITVNDLPVGRSVDETLRLVQAFQFTDKHGEVCPAGWKPGSDTIKPDVQKSKEYFSKQK
notes: peroxiredoxin 1 (PRX1), human, wild type, untagged, no extra residues; Tested reduced (DTT) and oxidised to the disulfide (H2O2); also called peroxiredoxin 1; WT PRX1

binding [4]: binds
B3: PRX4 (endogenous, MM tumor cells) (protein, UniProt Q13162 38-271)
chain: WETEERPRTREEECHFYAGGQVYPGEASRVSVADHSLHLSKAKISKPAPYWEGTAVIDGEFKELKLTDYRGKYLVFFFYPLDFTFVCPTEIIAFGDRLEEFRSINTEVVACSVDSQFTHLAWINTPRRQGGLGPIRIPLLSDLTHQISKDYGVYLEDSGHTLRGLFIIDDKGILRQITLNDLPVGRSVDETLRLVQAFQYTDKHGEVCPAGWKPGSETIIPDPAGKLKYFDKLN
